{"source": "patent US20170059576", "key": {"[1]": {"biological_target": "c-Met (HGFR), endogenous on H1838 cells (Homo sapiens) (UniProt P08581)", "assay": "pull-down", "conditions": "5'-hexylamine coupled Sulfo-SBED (phenyl azide, biotin); protein on the cell surface; label: biotin; single-stranded DNA; variant of trCLN3"}, "Immunoglobulin E (IgE)": {"tested_on": "Immunoglobulin E (IgE)", "assay": "filter binding", "conditions": "purified native protein, protein details: Abcam, single-stranded DNA"}}, "note": "Construct, isoform or probe ends are uncertain for at least one entry. For part of these data: Results from cells or extracts need not show a direct contact."}
{"sequence": "TGGATGGTAGCTCGGTCGGGGTGGGTGGGTTGGCAAGTCT [ABAL-trCLN3]", "values": [{"measurement": "binding result", "setting": "[1]", "result": "binds"}]}
{"sequence": "GGGGCACGTTTATCCGTCCCTCCTAGTGGCGTGCCCC [ABAL-D17.4]", "values": [{"measurement": "binding result", "setting": "Immunoglobulin E (IgE); 5'-hexylamine coupled Sulfo-SBED (phenyl azide, biotin), affinity not altered vs unfunctionalized D17.4, high UV cross-linking, label: biotin, variant of D17.4", "result": "binds"}]}
{"sequence": "GGGGCACGTTTATCCGTCCCTCCTAGTGGCGTGCCCC [D17.4]", "values": [{"measurement": "binding result", "setting": "Immunoglobulin E (IgE)", "result": "binds"}]}
